What was measured:
UPLC-MS CoA adduct assay = type: physicochemical; conditions: compound-CoA adduct detection; 5 eq CoA, pH 7.0
UPLC-MS GSH adduct assay = type: physicochemical; conditions: compound-GSH adduct detection; 5 eq GSH, pH 7.0, 37 °C
[1] = HRP-PR redox activity counter-screen (H2O2 production); conditions: 250 μM compound; for HRP-PR redox counter-screen, - DTT: 0 mM DTT; for HRP-PR redox counter-screen, + DTT: 1 mM DTT

| Molecule | UPLC-MS CoA counter-screen (UPLC-MS CoA adduct assay) | UPLC-MS GSH counter-screen (UPLC-MS GSH adduct assay) | HRP-PR redox counter-screen, - DTT [1] | HRP-PR redox counter-screen, + DTT [1] | H2O2 production in situ (horseradish peroxidase-phenol red assay) [1] |
| --- | --- | --- | --- | --- | --- |
| CCCCCCCCCCCCCCC=C(C(=O)OCC)C(=O)OCC [Compound 19, LoCAM] | Negative | Negative | Negative | Negative |  |
| Cc1cc2c(C(C)C)c(O)c(O)c(C=O)c2c(O)c1-c1c(C)cc2c(C(C)C)c(O)c(O)c(C=O)c2c1O [Compound 16, Gossypol] |  |  | Positive (Redox-active compounds were defined as compounds with a mean absorbance >0.2) | Positive (Redox-active compounds were defined as compounds with a mean absorbance >0.2) | appreciable levels of H2O2 |
| CCCCCCCCCCCCCCCc1cccc(O)c1C(=O)O [Compound 14, Anacardic acid] | Negative | Negative | Negative | Negative |  |
| Plumbagin [Compound 8] | Positive | Positive | Negative | Positive (Redox-active compounds were defined as compounds with a mean absorbance >0.2) | appreciable levels of H2O2 |
| N#Cc1c2ccc(N)cc2nc2cc(N)ccc12 [Compound 22, CTx-1] | Negative | Negative |  | Negative |  |
| O=C1/C(=C/c2ccc(O)c(Br)c2)CCC/C1=C\c1ccc(O)c(Br)c1 [Compound 12, HAT inhibitor II] | Negative | Negative | Negative | Negative |  |
| CC1=NN(c2ccc(C(=O)O)cc2)C(=O)/C1=C/c1ccc(-c2cc(C)c(C)cc2[N+](=O)[O-])o1 [Compound 1, C646] | Positive | Positive | Negative | Negative |  |
| CC(=O)N[C@H](CCCCNC(=O)CSCCNC(=O)CCNC(=O)C(O)C(C)(C)COP(=O)(O)OP(=O)(O)OC[C@H]1O[C@@H](n2cnc3c(N)ncnc32)[C@H](O)[C@@H]1OP(=O)(O)O)C(N)=O (some centres unmarked) [Compound 23, Lys-CoA] |  |  | Negative | Negative |  |
| COc1cc(/C=C/c2cc(/C=C/c3ccc(O)c(OC)c3)n(-c3ccc(C(=O)[O-])cc3)n2)ccc1O.[Na+] [Compound 17, CTK7A] | Negative | Negative | Negative | Negative |  |
| O=c1c2cccnc2sn1Cc1ccc(C(F)(F)F)cc1 [Compound 3, PU141] | Positive | Positive | Negative | Negative |  |
| CCCC1(c2ccccc2)NC(=O)N(CC(=O)N(C)Cc2c(F)cccc2Cl)C1=O (centres unmarked) [Compound 21, N-[(2-chloro-6-fluorophenyl)methyl]-2-(2,5-dioxo-4-phenyl-4-propylimidazolidin-1-yl)-N-methylacetamide] | Negative | Negative | Negative | Negative |  |
| Cl.Cl.O=C(O)Cn1nnc(-c2ccc(CN(CCCCOc3ccc(CN4CCCC4)cc3)CCc3ccccc3)cc2)n1 [Compound 20, TH1834] | Negative | Negative | Negative | Negative |  |
| COc1ccc(/C(Cl)=C(/C=O)c2ccc(OC)cc2)cc1 [Compound 18, Windorphen] | Negative | positive | Negative | Negative |  |
| COc1ccc(S(=O)(=O)ON=C2C=C(C)C(=O)C(C)=C2)cc1 [Compound 5, L002] | Positive | Positive | Negative | Negative |  |
| COc1cc(/C=C/C(=O)CC(=O)/C=C/c2ccc(O)c(OC)c2)ccc1O [Compound 11, Curcumin] | Positive | Positive |  |  |  |
| CCCCCCCc1ccc(CCc2cccc(O)c2C(=O)O)cc1 [Compound 15, MG 149] | Negative | Negative |  |  |  |
| Clc1ccc(-c2csc(NN=C3CCCC3)n2)cc1 [Compound 7, CPTH2] | Indeterminate | Indeterminate | Negative | Negative |  |
| O=C(O[C@@H]1Cc2c(O)cc(O)cc2O[C@@H]1c1cc(O)c(O)c(O)c1)c1cc(O)c(O)c(O)c1 [Compound 10, (-)-Epigallocatechin gallate] | Negative | Positive |  |  |  |
| Garcinol [Compound 13] | Negative | Negative | Negative | Negative |  |
| CCCCCCCCCCCC1=C(O)C(=O)C=C(O)C1=O [Compound 9, Embelin] | Positive | Positive | Negative | Negative |  |
| C=C1C(=O)O[C@H](CCC)[C@H]1C(=O)O [Compound 6, MB-3] | Positive | Positive | Negative | Negative |  |
| Cc1cc(O)cc(C)c1C=C1C(=O)N(Cc2ccccc2)C(=O)N(Cc2ccccc2)C1=O [Compound 4, EML425] | Negative | negative |  |  |  |
